Laboratory results: article PMC11231174
No constants are given. Whether binding was seen depends on the method and setting. In cells and extracts the contact can be indirect. Some binding calls cover weakened binding; strength is not graded here.

Molecular target: T1, TNF-α receptor Tnr1a (Tnfr1) (mouse) (UniProt P25118)
T1 sequence: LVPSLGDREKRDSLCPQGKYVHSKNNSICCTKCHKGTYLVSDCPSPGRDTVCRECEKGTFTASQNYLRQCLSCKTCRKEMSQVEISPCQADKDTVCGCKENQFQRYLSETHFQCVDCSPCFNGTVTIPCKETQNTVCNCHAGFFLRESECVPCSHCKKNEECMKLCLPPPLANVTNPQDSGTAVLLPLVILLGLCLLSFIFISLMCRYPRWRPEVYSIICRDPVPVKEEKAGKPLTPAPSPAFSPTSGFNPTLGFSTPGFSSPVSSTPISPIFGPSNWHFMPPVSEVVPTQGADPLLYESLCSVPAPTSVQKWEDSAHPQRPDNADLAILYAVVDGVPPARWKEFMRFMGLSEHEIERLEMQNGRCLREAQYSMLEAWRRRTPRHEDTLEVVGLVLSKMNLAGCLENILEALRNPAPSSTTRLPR
Assay: co-IP; cells or tissues lysed in NP-40 buffer with protease and phosphatase inhibitors; specific antibody, Protein A/G magnetic beads, washed with NP-40 buffer, eluted in SDS sample buffer, Western blot; sample and precipitating antibody not stated

For “Neuropilin-1 (Nrp1) (from UniProt P97333 22-923) (receptor)”, the binding was “binds”.
